# Source: paper PMC4207412, “Secondary Structural Preferences of Some Antibacterial Cyclooctapeptides in the Presence of Calcium(II)” (International Journal of Medicinal Chemistry, 2012)
# What was measured:
# [1] = Isothermal titration calorimetry of Ca2+ binding in 10% acetonitrile in water; details: ITC, 30°C, no DPC, mean of three experiments ± standard error mean
# Experimental: (§1) Microcalorimetric titrations of peptides with metal ions were conducted by isothermal titration microcalorimetry (ITC) using a Microcal VP-ITC Instrument (Northampton, MA, USA). Experiments were carried out at 30°C in 10% acetonitrile in water. The peptide concentration was 0.15 or 0.30 mM (1.34 mL sample cell), and the metal ion [Ca(ClO4)2] concentration was varied from 9 to 15 mM in the syringe. Automated titrations were conducted until saturation, up to a Ca^2+/peptide mole ratio of about 12 : 1. Heats of dilution and mixing for each experiment were measured by titrating calcium(II) solution into 10% acetonitrile solution. The effective heat of each peptide and calcium(II) interaction was corrected for dilution and mixing effects by subtracting the enthalpy change derived from the titration of calcium(II) solution into the 10% acetonitrile solution without the peptide. In a similar way, ITC experiments were carried out at 30°C in 10% aqueous acetonitrile containing 10 mM DPC. These heats of bimolecular interactions were obtained by integrating the peak following each injection of calcium(II). The binding isotherms were derived from the raw ITC data following correction for dilution and mixing effects. These isotherms were fitted using the one-site model by a nonlinear least square analysis with Microcal Origin 7.0 software (Microcal Software, Inc., Northampton, MA, USA) to determine the molar enthalpy change for binding, ΔH, and the corresponding binding constant, K b. From these values, the thermodynamic characterization of the interaction at 30°C was determined from the fundamental equations of thermodynamics, ΔG = −RT ln K b and ΔS = (ΔH − ΔG)/T.
# [2] = Isothermal titration calorimetry of Ca2+ binding in micellar DPC (10 mM); details: ITC, 30°C, 10% aqueous acetonitrile containing 10 mM micellar DPC, mean of three experiments ± standard error mean
# Experimental: as §1
# In order to mimic the hydrophobic environment of the bacterial membrane that antimicrobial peptides commonly target, the interactions of these cyclopeptides with calcium(II) were also conducted in the presence of micellar dodecylphosphocholine (DPC). […] However, their association is compensated by an increase in entropy (ΔS values range from ca. 42.7 to 66.5 JK^−1 mol^−1). […]
smiles,measurement,setting,value
CC(C)C[C@@H]1NC(=O)[C@@H](CC(C)C)NC(=O)[C@H](CCC(=O)O)NC(=O)[C@@H](CCCCN)NC(=O)[C@H](CCCCN)NC(=O)[C@@H](CCCCN)NC(=O)[C@H](CCCCN)NC(=O)[C@@H](CC(C)C)NC1=O [COP 4] (cyclo(E[dL]L[dL]K[dK]K[dK])),Change in enthalpy ΔH,[1]; one-site model,-2.7 ± 0.311 kcal/mol
same,Change in Gibbs free energy ΔG,[1]; ΔG = −RT ln K b,-4.8 ± 0.19 kcal/mol
same,Change in entropy ΔS,[1]; ΔS = (ΔH − ΔG)/T,28.9 ± 4.6 J K^−1 mol^−1
same,Change in enthalpy ΔH,[2]; one-site model,-0.406 ± 0.024 kcal/mol
same,Change in Gibbs free energy ΔG,[2]; ΔG = −RT ln K b,-5.09 ± 0.19 kcal/mol
same,Change in entropy ΔS,[2]; ΔS = (ΔH − ΔG)/T,64.9 ± 2.1 J K^−1 mol^−1

# Square brackets hold non-standard residues; d marks the D form. Peptide text beside a SMILES is read from it.
